No constants are given. Whether binding was seen depends on the method and setting. Binding seen in cells or lysates may run through a third protein.

By UniProt entry, the sequences of proteins in these tests, tags left out.
UniProt P40123: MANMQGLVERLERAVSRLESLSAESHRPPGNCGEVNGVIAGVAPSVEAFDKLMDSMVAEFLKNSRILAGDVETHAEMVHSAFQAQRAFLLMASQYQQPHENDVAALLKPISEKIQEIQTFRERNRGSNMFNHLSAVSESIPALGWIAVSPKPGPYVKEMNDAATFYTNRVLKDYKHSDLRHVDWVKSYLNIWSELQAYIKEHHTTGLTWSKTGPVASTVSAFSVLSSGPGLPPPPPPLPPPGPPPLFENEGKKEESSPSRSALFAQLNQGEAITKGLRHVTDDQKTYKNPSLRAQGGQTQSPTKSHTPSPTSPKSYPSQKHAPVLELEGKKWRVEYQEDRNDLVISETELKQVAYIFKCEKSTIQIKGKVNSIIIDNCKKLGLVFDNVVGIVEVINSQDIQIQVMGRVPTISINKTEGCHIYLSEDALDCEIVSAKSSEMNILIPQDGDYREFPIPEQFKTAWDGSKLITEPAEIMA
UniProt P07355: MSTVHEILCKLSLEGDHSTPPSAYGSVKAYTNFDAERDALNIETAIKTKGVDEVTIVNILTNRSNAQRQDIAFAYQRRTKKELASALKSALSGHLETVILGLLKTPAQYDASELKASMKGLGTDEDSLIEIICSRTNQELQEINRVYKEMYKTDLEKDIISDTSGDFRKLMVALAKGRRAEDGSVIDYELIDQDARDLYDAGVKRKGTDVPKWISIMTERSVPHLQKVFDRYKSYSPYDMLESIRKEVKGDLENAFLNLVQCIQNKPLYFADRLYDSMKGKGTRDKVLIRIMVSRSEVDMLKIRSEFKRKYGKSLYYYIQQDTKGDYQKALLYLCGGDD
UniProt P04406: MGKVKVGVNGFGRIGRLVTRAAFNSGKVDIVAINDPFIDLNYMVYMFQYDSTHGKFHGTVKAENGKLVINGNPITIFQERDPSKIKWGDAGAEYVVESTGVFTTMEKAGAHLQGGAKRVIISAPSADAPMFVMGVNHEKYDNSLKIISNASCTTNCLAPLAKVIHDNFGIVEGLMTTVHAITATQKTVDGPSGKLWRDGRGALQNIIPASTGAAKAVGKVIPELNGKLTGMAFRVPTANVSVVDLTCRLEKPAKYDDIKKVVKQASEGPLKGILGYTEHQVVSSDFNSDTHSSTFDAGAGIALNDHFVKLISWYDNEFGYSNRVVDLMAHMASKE
UniProt P06733: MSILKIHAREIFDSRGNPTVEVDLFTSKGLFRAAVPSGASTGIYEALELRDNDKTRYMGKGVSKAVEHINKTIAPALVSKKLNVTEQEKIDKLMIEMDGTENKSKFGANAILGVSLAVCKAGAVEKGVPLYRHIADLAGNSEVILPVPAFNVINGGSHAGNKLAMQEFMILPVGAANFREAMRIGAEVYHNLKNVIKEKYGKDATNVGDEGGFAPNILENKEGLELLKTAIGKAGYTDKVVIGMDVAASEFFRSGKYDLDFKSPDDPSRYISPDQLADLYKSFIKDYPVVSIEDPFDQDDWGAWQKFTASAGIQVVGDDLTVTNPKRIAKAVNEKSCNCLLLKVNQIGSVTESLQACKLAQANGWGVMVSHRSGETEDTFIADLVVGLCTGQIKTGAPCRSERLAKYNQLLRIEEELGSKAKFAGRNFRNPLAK

Sequences and labels used below:
B1: malate dehydrogenase 2, endogenous (protein, UniProt P40926 25-338)
chain: AKVAVLGASGGIGQPLSLLLKNSPLVSRLTLYDIAHTPGVAADLSHIETKAAVKGYLGPEQLPDCLKGCDVVVIPAGVPRKPGMTRDDLFNTNATIVATLTAACAQHCPEAMICVIANPVNSTIPITAEVFKKHGVYNPNKIFGVTTLDIVRANTFVAELKGLDPARVNVPVIGGHAGKTIIPLISQCTPKVDFPQDQLTALTGRIQEAGTEVVKAKAGAGSATLSMAYAGARFVFSLVDAMNGKEGVVECSFVKSQETECTYFSTPLLLGKKGIEKNLGIGKVSSFEEKMISDAIPELKASIKKGEDFVKTLK
B2: annexin A1, endogenous (protein, UniProt P04083 1-346)
chain: MAMVSEFLKQAWFIENEEQEYVQTVKSSKGGPGSAVSPYPTFNPSSDVAALHKAIMVKGVDEATIIDILTKRNNAQRQQIKAAYLQETGKPLDETLKKALTGHLEEVVLALLKTPAQFDADELRAAMKGLGTDEDTLIEILASRTNKEIRDINRVYREELKRDLAKDITSDTSGDFRNALLSLAKGDRSEDFGVNEDLADSDARALYEAGERRKGTDVNVFNTILTTRSYPQLRRVFQKYTKYSKHDMNKVLDLELKGDIEKCLTAIVKCATSKPAFFAEKLHQAMKGVGTRHKALIRIMVSRSEIDMNDIKAFYQKMYGISLCQAILDETKGDYEKILVALCGGN

The experiment concerns the target cyclase-associated protein 2 (CAP2), endogenous (human (endogenous in MKN45)) (UniProt P40123). The experiment is described as follows: co-IP; endogenous proteins, cell lysates immunoprecipitated with anti-CAP2 or IgG, Western blot. On the technique in general: Immunoblotting shows a protein as a band on a membrane.
For the molecule “ANXA2, endogenous (from UniProt P07355 1-339)”, the binding result was “no binding”. Next, “GAPDH, endogenous (from UniProt P04406 1-335)”: “no binding”.

In the case of “enolase 1, endogenous (from UniProt P06733 1-434)”, the binding result was “no binding”. Then B1, with “no binding”; and B2, with “no binding”.

The values above are taken from article PMC10617780.
